Data as given in article PMC10789772.
No constants are given. Whether binding was seen depends on the method and setting. In cells and extracts the contact can be indirect. Some binding calls cover weakened binding; strength is not graded here.

Amino acid sequences for entries named in this document (tags omitted).
UniProt Q13838: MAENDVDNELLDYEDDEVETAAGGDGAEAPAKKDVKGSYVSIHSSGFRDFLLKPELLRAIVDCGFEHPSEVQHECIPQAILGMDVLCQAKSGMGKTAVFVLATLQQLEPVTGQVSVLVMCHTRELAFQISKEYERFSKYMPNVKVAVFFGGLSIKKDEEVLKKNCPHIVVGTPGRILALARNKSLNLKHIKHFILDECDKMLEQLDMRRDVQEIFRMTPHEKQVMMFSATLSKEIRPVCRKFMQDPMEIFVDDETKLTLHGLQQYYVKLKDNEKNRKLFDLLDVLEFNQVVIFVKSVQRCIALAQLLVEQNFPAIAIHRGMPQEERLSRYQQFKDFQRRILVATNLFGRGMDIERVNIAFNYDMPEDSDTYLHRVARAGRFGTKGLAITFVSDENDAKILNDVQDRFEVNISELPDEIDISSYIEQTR

Columns and labels:
[1] = molecular target: 3×FLAG-UAP56 (human) (UniProt Q13838); assay: co-IP; as a1, with ATP (500 μM), MgCl2 (3.2 mM) and creatine phosphate (20 mM) added to the nuclear extract, 30 min at 30 °C; immunoblot
[2] = molecular target: 3×FLAG-UAP56 (human) (UniProt Q13838); assay: co-IP; FLAG immunoprecipitation from nuclear extract in the presence of AMP-PNP (also with excess AMP-PNP for URH49)
[3] = molecular target: 3×FLAG-UAP56 (human) (UniProt Q13838); assay: co-IP; FLAG immunoprecipitation from nuclear extract in the presence of ADP

Measured: binding

B1: CIP29 (protein, UniProt P82979 1-210)
chain: MATETVELHKLKLAELKQECLARGLETKGIKQDLIHRLQAYLEEHAEEEANEEDVLGDETEEEETKPIELPVKEEEPPEKTVDVAAEKKVVKITSEIPQTERMQKRAERFNVPVSLESKKAARAARFGISSVPTKGLSSDNKPMVNLDKLKERAQRFGLNVSSISRKSEDDEKLKKRKERFGIVTSSAGTGTTEDTEAKKRKRAERFGIA
binds: all assays above
